Source: the supplement of paper PMC4604168 (melanoma cell lines)
The other results are listed elsewhere or left out. Many values rest on one well or one pass, so single values are uncertain.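 Cells were imaged in 1,536-well plates, and nuclei stained with an antibody against cleaved PARP were counted against all DNA-stained nuclei to give the apoptosis fraction. Screening doses were chosen to leave most cells alive, and resting and induced cleaved-PARP levels differ strongly between cell lines.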

How the values were obtained:
Assay in all cases: cleaved PARP positive nuclei fraction relative to DMSO control; melanoma cells; higher = more apoptosis
Conditions in all cases: library dose: low library concentration; 72 h
[1] = tested on: MZ2-MEL
[2] = tested on: MeWo
[3] = tested on: RPMI7951
[4] = tested on: RVH-421
[5] = tested on: SkMel28
[6] = tested on: SkMel30
[7] = tested on: SkMel5
[8] = tested on: UACC257
[9] = tested on: UACC62
[10] = tested on: WM115
[11] = tested on: WM1716
[12] = tested on: WM1745
[13] = tested on: WM3526
[14] = tested on: WM3619
[15] = tested on: WM451Lu

Row | Compound | cleaved PARP positive nuclei fraction [1] [%] | cleaved PARP positive nuclei fraction [2] [%] | cleaved PARP positive nuclei fraction [3] [%] | cleaved PARP positive nuclei fraction [4] [%] | cleaved PARP positive nuclei fraction [5] [%] | cleaved PARP positive nuclei fraction [6] [%] | cleaved PARP positive nuclei fraction [7] [%] | cleaved PARP positive nuclei fraction [8] [%] | cleaved PARP positive nuclei fraction [9] [%] | cleaved PARP positive nuclei fraction [10] [%] | cleaved PARP positive nuclei fraction [11] [%] | cleaved PARP positive nuclei fraction [12] [%] | cleaved PARP positive nuclei fraction [13] [%] | cleaved PARP positive nuclei fraction [14] [%] | cleaved PARP positive nuclei fraction [15] [%]
1 | O=C(O)c1ccc(-c2c[nH]c3ncc(-c4ccccc4)cc23)cc1C1CCCC1 + O=c1cc(-c2cccc3c2Sc2ccccc2S3)oc(N2CCOCC2)c1 [KU55933] (first compound 0.16 µM, partner dose 1 µM) | 181 | 85 | 118 | 34.5 | 54 | 145 | 29.2 | 49.3 | 162 | 97.9 | 55.6 | 102 | 36.8 | 57.7 | 103
2 | Oc1cc(-c2nc(-c3ccccc3)[nH]c2-c2ccncc2)ccc1Cl + O=C(O)C(=O)Nc1sc2c(c1C(=O)O)CCNC2 [TCS401] (first compound 0.2 µM, partner dose 1.66667 µM) | 132 | 48.3 | 73.8 | 130 | 75.6 | 26.9 | 57.6 | 50.7 | 105 | 63.6 | 84.5 | 150 | 106 | 82.4 | 114
3 | CCN(CC)CCCCNc1ncc2cc(-c3cc(OC)cc(OC)c3)c(NC(=O)NC(C)(C)C)nc2n1 + CCCCCCCCCCCC1=C(O)C(=O)C=C(O)C1=O [Embelin] (first compound 0.1 µM, partner dose 1.2 µM) | 69.2 | 75.4 | 86 | 96.1 | 173 | 81.7 | 58.5 | 101 | 57.1 | 51 | 31.8 | 103 | 125 | 72.6 | 184
4 | N#Cc1c(O)c2c(-c3ccc(-c4ccccc4O)cc3)csc2[nH]c1=O + COc1ccc(COc2ccc(Cc3cnc(N)nc3N)cc2OC)cc1 [GW2580] (first compound 2 µM, partner dose 1 µM) | 70.6 | 144 | 37.3 | 117 | 58.6 | 27.5 | 57.5 | 69 | 33.8 | 65.4 | 78.1 | 121 | 63.8 | 156 | 200
5 | Oc1nc(-c2ccc(C(F)(F)F)cc2)nc2c1CSCC2 + c1cc(-c2cnn3cc(-c4ccc(OCCN5CCCCC5)cc4)cnc23)ccn1 [Dorsomorphin] (first compound 2 µM, partner dose 0.4 µM) | 57 | 100 | 85.2 | 170 | 156 | 28.2 | 411 | 139 | 196 | 151 | 130 | 263 | 68.1 | 79.8 | 54.6
6 | CN(NC(=O)CC(=O)NN(C)C(=S)c1ccccc1)C(=S)c1ccccc1 + COc1cc(N2CCC(N3CCN(C)CC3)CC2)ccc1Nc1ncc(Cl)c(Nc2ccccc2S(=O)(=O)C(C)C)n1 [NVP-TAE684] (first compound 0.006 µM, partner dose 0.08 µM) | 82.7 | 80 | 81 | 313 | 268 | 68.6 | 210 | 237 | 65.7 | 177 | 135 | 194 | 66.8 | 128 | 146
7 | COc1cc2c(Oc3ccc4[nH]c(C)cc4c3F)ncnc2cc1OCCCN1CCCC1 [cediranib] + Oc1cc(-c2nc(-c3ccccc3)[nH]c2-c2ccncc2)ccc1Cl [L779450] (first compound 0.4 µM, partner dose 0.2 µM) | 54.9 | 109 | 86.6 | 128 | 126 | 138 | 90.1 | 201 | 273 | 259 | 75.8 | 137 | 89.8 | 66.1 | 83.5
8 | Cc1cc([N+](=O)[O-])ccc1NS(=O)(=O)c1cc(Cl)ccc1Cl + CCCCCCCCCCCC1=C(O)C(=O)C=C(O)C1=O [Embelin] (first compound 1 µM, partner dose 1.2 µM) | 96.6 | 76.6 | 70.6 | 53.5 | 71.8 | 197 | 43.9 | 200 | 83.8 | 50.1 | 119 | 100 | 69.6 | 82.3 | 116
9 | COc1cc2c(Oc3ccc4[nH]c(C)cc4c3F)ncnc2cc1OCCCN1CCCC1 [cediranib] + COc1ccc2c(c1)CCC1C2CCC2(C)C(NCCCCCCN3C(=O)C=CC3=O)CCC12 [U73122] (first compound 0.4 µM, partner dose 0.4 µM) | 115 | 44.4 | 111 | 56.2 | 103 | 58 | 52.7 | 80.4 | 127 | 120 | 157 | 100 | 124 | 91.2 | 57.9
10 | N#Cc1c(O)c2c(-c3ccc(-c4ccccc4O)cc3)csc2[nH]c1=O + O=C1NC(=O)/C(=C/c2ccc(-c3ccc(F)cc3O)o2)S1 [AS252424] (first compound 2 µM, partner dose 1 µM) | 118 | 54.1 | 39 | 33.4 | 113 | 39.3 | 59.3 | 101 | 283 | 140 | 35 | 100 | 86.1 | 71 | 29.4
11 | CCc1ccc(CCOc2ccc(CC3SC(=O)NC3=O)cc2)nc1 (stereo not given) [pioglitazone] + N#Cc1c(O)c2c(-c3ccc(-c4ccccc4O)cc3)csc2[nH]c1=O [A769662] (first compound 2 µM, partner dose 2 µM) | 90.2 | 54.1 | 255 | 68.8 | 106 | 83.8 | 25.6 | 80.3 | 64.6 | 227 | 35.2 | 107 | 167 | 95.6 | 66
12 | COc1cc2c(Oc3ccc4[nH]c(C)cc4c3F)ncnc2cc1OCCCN1CCCC1 [cediranib] + CC(C)CCN1c2nc(Nc3cc(F)c(O)c(F)c3)ncc2N(C)C(=O)C1C [BID1870] (first compound 0.4 µM, partner dose 0.2 µM) | 113 | 121 | 74.4 | 55.4 | 193 | 26.9 | 82.7 | 249 | 45 | 149 | 206 | 118 | 94.8 | 68.9 | 103
13 | COc1ccc2c(c1)CCC1C2CCC2(C)C(NCCCCCCN3C(=O)C=CC3=O)CCC12 (stereo not given) + CCCCCCCCCCCC1=C(O)C(=O)C=C(O)C1=O [Embelin] (first compound 0.4 µM, partner dose 1.2 µM) | 118 | 35.4 | 91.2 | 102 | 195 | 14.7 | 169 | 77.7 | 74.8 | 119 | 52.1 | 94.3 | 66.8 | 62.3 | 63.4
14 | COC(=O)c1sccc1S(=O)(=O)Nc1ccc(Nc2ccccc2)cc1OC + O=c1cc(-c2cccc3c2Sc2ccccc2S3)oc(N2CCOCC2)c1 [KU55933] (first compound 1 µM, partner dose 1 µM) | 198 | 216 | 93.7 | 117 | 88.1 | 49.7 | 121 | 111 | 45.9 | 137 | 75.6 | 107 | 139 | 106 | 64.2
15 | N#Cc1c(O)c2c(-c3ccc(-c4ccccc4O)cc3)csc2[nH]c1=O + Oc1cc(-c2nc(-c3ccccc3)[nH]c2-c2ccncc2)ccc1Cl [L779450] (first compound 2 µM, partner dose 0.2 µM) | 125 | 37.7 | 88.8 | 47.1 | 228 | 272 | 109 | 78.4 | 326 | 166 | 113 | 296 | 72.7 | 71.2 | 222
16 | N#Cc1c(O)c2c(-c3ccc(-c4ccccc4O)cc3)csc2[nH]c1=O + Cn1cc(/C=C2\C(=O)Nc3cccnc32)c2ccccc21 [GW441756] (first compound 2 µM, partner dose 0.4 µM) | 147 | 52.3 | 36.7 | 152 | 80.2 | 85.7 | 66.9 | 73.3 | 82.8 | 70.9 | 146 | 102 | 74 | 65.8 | 73.7
17 | O=S(=O)(c1ccccc1)N(CC(F)(F)F)c1ccc(C(O)(C(F)(F)F)C(F)(F)F)cc1 + Oc1cc(-c2nc(-c3ccccc3)[nH]c2-c2ccncc2)ccc1Cl [L779450] (first compound 1.4 µM, partner dose 0.2 µM) | 54.1 | 67.9 | 172 | 145 | 205 | 120 | 325 | 57.4 | 121 | 50.3 | 93.4 | 115 | 96.6 | 112 | 120
18 | CCc1ccc(CCOc2ccc(CC3SC(=O)NC3=O)cc2)nc1 (stereo not given) [pioglitazone] + COc1ccc2c(c1)CCC1C2CCC2(C)C(NCCCCCCN3C(=O)C=CC3=O)CCC12 [U73122] (first compound 2 µM, partner dose 0.4 µM) | 122 | 78.5 | 81.4 | 119 | 155 | 37.7 | 32.6 | 227 | 35.6 | 226 | 67.7 | 228 | 71 | 65.1 | 110
19 | CCc1ccc(CCOc2ccc(CC3SC(=O)NC3=O)cc2)nc1 (stereo not given) [pioglitazone] + O=C(Nc1ccccc1)c1cc([N+](=O)[O-])ccc1Cl [GW9662] (first compound 2 µM, partner dose 2 µM) | 121 | 52.5 | 74.7 | 97.6 | 139 | 93 | 19.2 | 107 | 47.7 | 53.5 | 19.9 | 209 | 66.3 | 101 | 162

Rewritten as comma-separated lines: part of the list above
Row,Compound,cleaved PARP positive nuclei fraction [1] [%],cleaved PARP positive nuclei fraction [2] [%],cleaved PARP positive nuclei fraction [3] [%],cleaved PARP positive nuclei fraction [4] [%],cleaved PARP positive nuclei fraction [5] [%],cleaved PARP positive nuclei fraction [6] [%],cleaved PARP positive nuclei fraction [7] [%],cleaved PARP positive nuclei fraction [8] [%],cleaved PARP positive nuclei fraction [9] [%],cleaved PARP positive nuclei fraction [10] [%],cleaved PARP positive nuclei fraction [11] [%],cleaved PARP positive nuclei fraction [12] [%],cleaved PARP positive nuclei fraction [13] [%],cleaved PARP positive nuclei fraction [14] [%],cleaved PARP positive nuclei fraction [15] [%]
2,"Oc1cc(-c2nc(-c3ccccc3)[nH]c2-c2ccncc2)ccc1Cl + O=C(O)C(=O)Nc1sc2c(c1C(=O)O)CCNC2 [TCS401] (first compound 0.2 µM, partner dose 1.66667 µM)",132,48.3,73.8,130,75.6,26.9,57.6,50.7,105,63.6,84.5,150,106,82.4,114
8,"Cc1cc([N+](=O)[O-])ccc1NS(=O)(=O)c1cc(Cl)ccc1Cl + CCCCCCCCCCCC1=C(O)C(=O)C=C(O)C1=O [Embelin] (first compound 1 µM, partner dose 1.2 µM)",96.6,76.6,70.6,53.5,71.8,197,43.9,200,83.8,50.1,119,100,69.6,82.3,116
14,"COC(=O)c1sccc1S(=O)(=O)Nc1ccc(Nc2ccccc2)cc1OC + O=c1cc(-c2cccc3c2Sc2ccccc2S3)oc(N2CCOCC2)c1 [KU55933] (first compound 1 µM, partner dose 1 µM)",198,216,93.7,117,88.1,49.7,121,111,45.9,137,75.6,107,139,106,64.2
